The target of assay [1] is T1, 人MerTK, M2c分化的人巨噬细胞上 (human) (UniProt Q12866).
T1 sequence: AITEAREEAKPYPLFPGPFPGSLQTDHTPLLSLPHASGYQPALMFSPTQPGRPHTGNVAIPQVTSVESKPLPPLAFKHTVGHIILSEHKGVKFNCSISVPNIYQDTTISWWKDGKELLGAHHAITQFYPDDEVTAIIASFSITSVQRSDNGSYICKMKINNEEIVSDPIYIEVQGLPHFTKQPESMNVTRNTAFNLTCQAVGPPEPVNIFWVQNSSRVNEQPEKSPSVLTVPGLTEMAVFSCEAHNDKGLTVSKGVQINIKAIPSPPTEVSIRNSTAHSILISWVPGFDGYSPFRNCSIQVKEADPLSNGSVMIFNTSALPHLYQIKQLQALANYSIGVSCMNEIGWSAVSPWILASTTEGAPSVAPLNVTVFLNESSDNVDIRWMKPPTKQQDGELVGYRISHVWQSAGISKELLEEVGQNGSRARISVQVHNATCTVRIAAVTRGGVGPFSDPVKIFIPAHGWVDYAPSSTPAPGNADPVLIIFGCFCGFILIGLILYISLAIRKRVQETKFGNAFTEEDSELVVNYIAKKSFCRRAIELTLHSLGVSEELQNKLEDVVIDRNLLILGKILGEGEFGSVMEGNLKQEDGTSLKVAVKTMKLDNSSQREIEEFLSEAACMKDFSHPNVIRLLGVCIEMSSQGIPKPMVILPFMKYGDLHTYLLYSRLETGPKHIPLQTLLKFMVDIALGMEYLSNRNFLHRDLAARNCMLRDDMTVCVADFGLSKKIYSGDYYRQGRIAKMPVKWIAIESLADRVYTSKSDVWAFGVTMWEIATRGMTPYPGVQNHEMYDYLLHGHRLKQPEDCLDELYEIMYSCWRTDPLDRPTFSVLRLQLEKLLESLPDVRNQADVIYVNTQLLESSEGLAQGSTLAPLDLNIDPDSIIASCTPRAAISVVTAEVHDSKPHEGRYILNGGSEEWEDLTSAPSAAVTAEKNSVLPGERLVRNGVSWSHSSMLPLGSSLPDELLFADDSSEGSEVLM
Briefly: FACS on M2c differentiated human macrophages.

Assay [2] addresses T2, 人MerTK, 过表达于CHO细胞 (CHO-huMerTK OE) (human) (UniProt Q12866).
T2 sequence: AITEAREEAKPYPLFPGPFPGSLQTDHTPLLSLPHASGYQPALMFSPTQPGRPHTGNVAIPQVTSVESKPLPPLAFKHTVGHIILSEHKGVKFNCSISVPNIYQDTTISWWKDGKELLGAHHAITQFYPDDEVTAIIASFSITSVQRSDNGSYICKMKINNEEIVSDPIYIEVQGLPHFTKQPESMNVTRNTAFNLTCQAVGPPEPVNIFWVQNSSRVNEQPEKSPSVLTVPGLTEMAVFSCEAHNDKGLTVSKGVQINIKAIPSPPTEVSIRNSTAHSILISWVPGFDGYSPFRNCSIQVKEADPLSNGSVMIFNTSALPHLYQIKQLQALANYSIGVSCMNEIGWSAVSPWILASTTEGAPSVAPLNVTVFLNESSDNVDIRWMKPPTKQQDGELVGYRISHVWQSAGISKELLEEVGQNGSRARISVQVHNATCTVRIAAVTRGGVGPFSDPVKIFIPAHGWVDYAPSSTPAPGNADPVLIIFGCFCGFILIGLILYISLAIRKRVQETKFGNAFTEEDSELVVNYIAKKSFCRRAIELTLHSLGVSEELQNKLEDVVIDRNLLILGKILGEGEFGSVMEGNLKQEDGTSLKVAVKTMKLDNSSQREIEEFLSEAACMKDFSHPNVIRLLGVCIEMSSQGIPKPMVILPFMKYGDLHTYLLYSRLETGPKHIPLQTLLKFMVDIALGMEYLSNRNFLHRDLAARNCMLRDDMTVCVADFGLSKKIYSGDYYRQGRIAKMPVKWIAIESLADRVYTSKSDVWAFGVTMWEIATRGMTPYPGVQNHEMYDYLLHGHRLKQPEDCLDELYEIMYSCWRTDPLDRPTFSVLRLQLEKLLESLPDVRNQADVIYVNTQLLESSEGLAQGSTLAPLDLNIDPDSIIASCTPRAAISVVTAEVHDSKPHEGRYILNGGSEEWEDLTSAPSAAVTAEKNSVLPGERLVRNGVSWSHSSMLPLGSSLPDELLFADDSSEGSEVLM
Briefly: FACS on CHO-huMerTK OE cells.

These are yes or no findings as the source states them, for the method shown. Some entries that bind do so weakly or less than the wild type. Where a sequence is shown, tags or fusion partners need not be part of it.

B1: 单价(单臂)抗MerTK抗体MTK-33.11 (Fc LALAPS) (antibody, V domains shown)
VH: QVQLVQSGAEVKKPGASVKVSCKASGYTFTSYWMHWVRQAPGQGLEWIGVIDPSDNYINYNQKFQGRVTMTRDTSTSTVYMELSSLRSEDTAVYYCAREAWTRGYFDYWGQGTLVTVSS
VL: DIQMTQSPSSLSASVGDRVTITCQASRSVRNTVAWYQQKPGKAPKLLIYYASNRYTGVPSRFSGSGSGTDFTFTISSLQPEDIATYYCQQDYRSPFTFGQGTKLEIK
modifications: Dylight650 conjugate in the FACS binding assay (site not stated)
Take B1: the binding entry in assay [1] and in assay [2] was “binds” in each case.

Source of the values: patent CN117396514A.
